Laboratory results published in patent US20230295212A1 (ROME Therapeutics, Inc., priority 2022, published 2023).
At least one compound was matched to its structure with a doubt left.

Key:
[1] = test system: interferon-stimulated gene (ISG) response; experiment: in vivo decitabine challenge model (Example 108); set-up: species or system BALB/c mice; conditions: repeated dosing of decitabine, vehicle control animals; FIGS. 1A and 1B
[2] = test system: THP1-Dual KO-TREX1 xenograft tumors; experiment: THP1-Dual TREX1 KO xenografts with decitabine-induced IFN; format: in vivo, mouse; conditions: CB-17 SCID mice, decitabine 5 mg/kg IP once daily for 4 days
[3] = test system: interferon-stimulated gene (ISG) response; experiment: In vivo decitabine challenge model in C57BL/6 mice (ISG response); set-up: species or system mouse; conditions: repeated dosing of decitabine i.p. 5 mg/kg, control animals
Method: Exemplary compounds were tested for ability to alter the interferon-stimulated gene (ISG) response in C57BL/6 mice treated with decitabine. Assay procedures and results are described below. Twenty 9-11 week old C57BL/6 mice were acclimated to the lab for at least 5 days. Compound 23 was prepared in a 0.5% methylcellulose solution for p.o. administration. Decitabine (Sigma-Aldrich) was dissolved in sterile PBS (pH 7.4) and dosed within 30 minutes of preparation of the solution. Doses of both the compound and decitabine were administered once a day, every day from Day 0 to Day 4. […] The fold changes in interferon-stimulated gene (ISG) expression was calculated by first normalizing to GAPDH gene using the Delta CT method. The CT (gene of interest)—CT (reference gene) was calculated to generate a delta CT for all samples. […] The fold changes in interferon-stimulated gene (ISG, specifically IRF7 and MX1) expression was calculated by first normalizing to GAPDH gene using the Delta CT method. The CT (gene of interest)—CT (reference gene) was calculated to generate a delta CT for all samples. The fold change was then calculated by taking the Log2(Delta CT(control)—Delta CT (experimental). The control in this example was the PBS control animal group. Individual primers were used to amplify target genes.

With `Nc1ncn([C@H]2C[C@H](O)[C@@H](CO)O2)c(=O)n1` [decitabine] the “interferon-stimulated gene (ISG) response in the spleen” value [1] was “induces interferon-stimulated gene (ISG) response”, the “interferon signal in THP1 tumors” value [2] was “increase in interferon signal” and the “interferon-stimulated gene (ISG) response in the spleen” value [3] was “induces interferon-stimulated gene (ISG) response”.
